The other results are listed elsewhere or left out.
target: OsWRKY34 (Oryza sativa, UniProt Q0JBA9 1-250); experiment: protein-binding microarray (RPBM); PBS, 2% BSA, 51.3 ng/ul salmon testes DNA, 50 uM zinc acetate, 200 nM TF, 25 C, 1 h; high values mean tight binding; conditions: protein: recombinant; tags: N-terminal polyhistidine and DsRed monomer fusion (pET32a); label: CyDye5-dUTP incorporated in the synthesized complementary strand; 3' TTTTT single-stranded linker to array surface; dsDNA, one strand shown
Procedure, shortened: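 An Axon 4000B scanner gave the binding signal as per-feature fluorescence intensity in arbitrary units. This followed washing of a custom Agilent array that had been incubated for 1 h at 25 °C with 200 nM protein in PBS, 2% BSA, salmon testes DNA and 50 µM zinc acetate. The proteins were transcription factors fused at the N-terminus to polyhistidine and DsRed, expressed in E. coli BL21-CodonPlus and purified on Ni–NTA.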

Amino acid sequences for entries named in this document (tags omitted).
UniProt Q0JBA9, entry or part of it: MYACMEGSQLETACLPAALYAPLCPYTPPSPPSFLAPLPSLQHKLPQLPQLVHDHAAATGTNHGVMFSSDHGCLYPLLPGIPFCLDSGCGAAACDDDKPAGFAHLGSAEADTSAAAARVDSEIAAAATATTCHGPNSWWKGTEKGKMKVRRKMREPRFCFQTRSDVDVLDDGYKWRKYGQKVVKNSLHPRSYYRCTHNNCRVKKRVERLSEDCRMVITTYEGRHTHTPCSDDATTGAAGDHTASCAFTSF

Sequence | binding signal
GCTCTCCGGAGTTTTGGAACCCTTGTAACACTCGACCATACGGAGTCACCTAGTGCAG | 9400 fluorescence intensity (a.u.)
CGAGCCCGTCCAGGGCCAGGTACTTTCACTCTCACCTCACCGGAGTCACCTAGTGCAG | 8960 fluorescence intensity (a.u.)
TCCTCTCCTTCACTCGTACTGTTTCTGATATCATTGATTGCGGAGTCACCTAGTGCAG | 8590 fluorescence intensity (a.u.)
GGGCCAAAATTTTTATTCCTAATTTTTTTTTTTCGTTTTGCGGAGTCACCTAGTGCAG | 8420 fluorescence intensity (a.u.)
AACCTTGCATCTCAGCCCATTTCGACATATCCCCAATTCCCGGAGTCACCTAGTGCAG | 9310 fluorescence intensity (a.u.)
TACTATTATCTCTTTTGTATTACAAACATTCGAGTATAGTCGGAGTCACCTAGTGCAG | 8180 fluorescence intensity (a.u.)
GTTCCTGATATGTTTTTTTGTTGGTTGCAGGATGGCAAGACGGAGTCACCTAGTGCAG | 8880 fluorescence intensity (a.u.)
AGGGAGTATATGTGATGGACACAAAAGTTACTTTCATGATCGGAGTCACCTAGTGCAG | 8190 fluorescence intensity (a.u.)
GATAACCTATTGAGTGACATTTTATCCTTTGCACTTTAATCGGAGTCACCTAGTGCAG | 11200 fluorescence intensity (a.u.)
AACACAGCCTTATAACCTCAAGAAGCTTTCACGTTAATCCCGGAGTCACCTAGTGCAG | 8690 fluorescence intensity (a.u.)
CTCCTCCACTTTTCTTCGCTTCCTCACTACCACCTTCTCGCGGAGTCACCTAGTGCAG | 10300 fluorescence intensity (a.u.)
TTTTCATGTGTTCGCATCACCGCTCTTGAGTCTTGACTTTCGGAGTCACCTAGTGCAG | 12200 fluorescence intensity (a.u.)
ACAAGTGTTATCCTGAACCATACCTCGTGTCAGTCTGTCCCGGAGTCACCTAGTGCAG | 9970 fluorescence intensity (a.u.)
TCAATTCCATTTCCATCCTACTCCATCATCAGTGTCAGGTCGGAGTCACCTAGTGCAG | 9320 fluorescence intensity (a.u.)
CCATTACGCCGCGGTCGTTTCCTCTTCTCTTGCGTCCCATCGGAGTCACCTAGTGCAG | 10900 fluorescence intensity (a.u.)
ACCTTTCTCACTACACGCCATTCCGCTCGCGTCCAATTGTCGGAGTCACCTAGTGCAG | 10100 fluorescence intensity (a.u.)
GGTTTTGCGGTTCGAGCACGGTTTTGTATCCCGATGATAACGGAGTCACCTAGTGCAG | 11100 fluorescence intensity (a.u.)
AACAATCAGGACAATCGTGTTTCAACTGCTGAGTTTCTTACGGAGTCACCTAGTGCAG | 8390 fluorescence intensity (a.u.)
GCCCACCACCACCTGTGTCCTCTTCCTCTCCTCTCCTTGCCGGAGTCACCTAGTGCAG | 9460 fluorescence intensity (a.u.)
ATTTCTCACCGGCCGTTGACCTTCTTCTTGTGATGCTTATCGGAGTCACCTAGTGCAG | 13800 fluorescence intensity (a.u.)
CCACTCTTCTTGCACTTCTCAATCCAATTCCATCTCGATCCGGAGTCACCTAGTGCAG | 9980 fluorescence intensity (a.u.)

2 entries drawn at random from the list so far:
Sequence | binding signal
CTCCTCCACTTTTCTTCGCTTCCTCACTACCACCTTCTCGCGGAGTCACCTAGTGCAG | 10300 fluorescence intensity (a.u.)
GTTCCTGATATGTTTTTTTGTTGGTTGCAGGATGGCAAGACGGAGTCACCTAGTGCAG | 8880 fluorescence intensity (a.u.)

More results follow.

Sequence | binding signal
TTTTGGTTACACCCACTACCCAAAAGCACAAGCAGCTTACCGGAGTCACCTAGTGCAG | 8500 fluorescence intensity (a.u.)
TCCCTACCTACCCACCATCTGCAGCAACCACAGGGCCAATCGGAGTCACCTAGTGCAG | 8230 fluorescence intensity (a.u.)
GATATGCATTTTCCCTGCTTTCCCTGCTTTTCCCCTTTTTCGGAGTCACCTAGTGCAG | 16400 fluorescence intensity (a.u.)
AACTATATCACGAGTTTTATCTTCTGTGAAAATATCTTTCCGGAGTCACCTAGTGCAG | 8410 fluorescence intensity (a.u.)
ATCAAATATATCAAACCCCTTGTCAACCACTCGGTTATGTCGGAGTCACCTAGTGCAG | 8200 fluorescence intensity (a.u.)
GAGGGAATATTAGGTTTTGTTTGGAATATTATATTTTATACGGAGTCACCTAGTGCAG | 8810 fluorescence intensity (a.u.)
TATTTCCCATACAGTCAGTATCCACTCTATGTTCCACCACCGGAGTCACCTAGTGCAG | 9590 fluorescence intensity (a.u.)
GTACCCACACAGCGTCCCACCTCGCCGCCGGAGCCAATGACGGAGTCACCTAGTGCAG | 8440 fluorescence intensity (a.u.)
ACGCCACCGCCATTCCACCTCTCGCTTCGCTTCTTCTCCTCGGAGTCACCTAGTGCAG | 9420 fluorescence intensity (a.u.)
CGACACGGTCTCCAAAACACAACTTTGACTTCTTGTTTCTCGGAGTCACCTAGTGCAG | 10600 fluorescence intensity (a.u.)
CCGCCTCCTTTGACCCTACCAAAATTTACCGTTGACCATGCGGAGTCACCTAGTGCAG | 20000 fluorescence intensity (a.u.)
ATGAATAAGCCCTAACAATGTAACCTTGTTTTTTTTCTGTCGGAGTCACCTAGTGCAG | 8060 fluorescence intensity (a.u.)
CTGCCTACTGCTGCCCGGACGTCCCTGCACTGCGTCTCCGCGGAGTCACCTAGTGCAG | 9200 fluorescence intensity (a.u.)
TCGCCATCGATCGATCGTCTCAACCTCAACCACATTATTGCGGAGTCACCTAGTGCAG | 8550 fluorescence intensity (a.u.)
TCTTTTTTTTGAACTATTTTATTTTTGTGTGTTACGTTGTCGGAGTCACCTAGTGCAG | 8840 fluorescence intensity (a.u.)
GTTTCCGCGCTTTCCCCTGCTAGCCTCCGCGTGATAGATGCGGAGTCACCTAGTGCAG | 8760 fluorescence intensity (a.u.)
CGGGTCGTCTACGCCGCCGGCCGCTTCCTCACCTTCCACGCGGAGTCACCTAGTGCAG | 8170 fluorescence intensity (a.u.)
TATGGCCATCTATACCTCTACTACACCTGCACACCAACCACGGAGTCACCTAGTGCAG | 8040 fluorescence intensity (a.u.)
ATTATTTTGGTTATTGTGTTGAACAATTGTGAATTTCTGTCGGAGTCACCTAGTGCAG | 9310 fluorescence intensity (a.u.)
CAAACCTGTGTACTTTCTACGTGTTTTTTCTATGTTTCCGCGGAGTCACCTAGTGCAG | 12100 fluorescence intensity (a.u.)
CCCACCGCGCTCTCGCTCTGCCACCGCCATTGCGCCACCGCGGAGTCACCTAGTGCAG | 9330 fluorescence intensity (a.u.)

— PMC7819943, “Rice protein-binding microarrays: a tool to detect cis-acting elements near promoter regions in rice”
